{"source": "paper PMC5947683", "binders": {"B1": {"name": "Est8, GDSL-motif esterase from Bacillus sp. K91 (enzyme)", "chain": "MANHIYLAGDSTVQTYGDSTNQGGWGQFLGSHLPEHIQVINRAIGGRSSKTFVEEGRLQAILDVIEPDDWLFVQMGHNDASKNKPERYTEPYTTYKQYLKQYIAGAREKGAHPLLITPVARFHYENGVFLNDFPDYCIAMKQTAEEENVQLIDLMEKSLAFFTEKGEEKVYTYFMISEGINDYTHFTKKGANEMAKLVAKGIKELGLPLTESIIKER"}}, "molecular_target": "Est8, GDSL-motif esterase from Bacillus sp. K91 (Bacillus sp. K91)", "assay": "SEC; gel filtration on Superdex 75 10/300 GL in 20 mM Tris-HCl, 0.5 M NaCl pH 7.2, after Ni-NTA; both purified", "note": "Results are given in words; binding and its absence hold for the method and conditions named.", "data": [{"binder": "B1", "values": [{"measurement": "binding", "value": "no binding"}]}]}
